{"sequences": {"note": "Protein sequences, listed by entry. Tags and fused reporters are not part of them.", "UniProt P46938": "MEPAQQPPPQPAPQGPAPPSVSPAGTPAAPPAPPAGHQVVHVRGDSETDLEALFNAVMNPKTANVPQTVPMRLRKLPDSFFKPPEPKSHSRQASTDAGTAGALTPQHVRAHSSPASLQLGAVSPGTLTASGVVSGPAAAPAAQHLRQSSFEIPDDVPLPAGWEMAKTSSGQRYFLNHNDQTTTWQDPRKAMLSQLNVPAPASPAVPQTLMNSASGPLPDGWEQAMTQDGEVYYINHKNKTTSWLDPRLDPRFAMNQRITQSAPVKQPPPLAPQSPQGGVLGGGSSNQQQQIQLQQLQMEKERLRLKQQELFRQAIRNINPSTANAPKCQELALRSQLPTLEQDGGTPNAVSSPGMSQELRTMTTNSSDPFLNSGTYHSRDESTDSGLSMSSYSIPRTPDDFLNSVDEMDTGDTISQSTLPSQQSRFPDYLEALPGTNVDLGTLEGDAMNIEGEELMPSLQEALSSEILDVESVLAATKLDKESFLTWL"}, "source": "paper PMC12406730", "target": "T1, β-TrCP (in OCY454 cells) (not stated (endogenous in OCY454)) (UniProt Q3ULA2)", "T1 sequence": "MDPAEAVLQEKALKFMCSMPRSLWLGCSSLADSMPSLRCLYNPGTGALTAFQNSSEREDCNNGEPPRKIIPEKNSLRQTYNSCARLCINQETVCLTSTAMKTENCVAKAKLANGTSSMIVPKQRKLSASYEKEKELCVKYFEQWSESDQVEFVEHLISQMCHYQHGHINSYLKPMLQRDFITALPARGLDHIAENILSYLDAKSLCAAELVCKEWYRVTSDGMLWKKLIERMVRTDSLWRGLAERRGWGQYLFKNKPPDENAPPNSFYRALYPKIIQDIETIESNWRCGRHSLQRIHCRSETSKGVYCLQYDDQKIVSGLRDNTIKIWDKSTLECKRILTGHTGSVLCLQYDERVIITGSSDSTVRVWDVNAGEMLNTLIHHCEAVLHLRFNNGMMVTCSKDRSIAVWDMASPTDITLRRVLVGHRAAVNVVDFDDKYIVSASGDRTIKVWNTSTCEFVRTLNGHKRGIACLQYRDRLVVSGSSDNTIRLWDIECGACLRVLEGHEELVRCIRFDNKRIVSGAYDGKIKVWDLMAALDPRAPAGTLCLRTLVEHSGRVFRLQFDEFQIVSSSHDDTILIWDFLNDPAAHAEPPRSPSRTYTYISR", "assay": "co-IP; endogenous proteins; lysate of OCY454 osteocyte cells, with or without PTH", "note": "Results are given in words; binding and its absence hold for the method and conditions named. In cells and extracts the contact can be indirect. Some results given as binding are weak or reduced against the parent protein; the word gives no strength."}
{"substance": "YAP (in OCY454 cells) (from UniProt P46938 1-488)", "values": [{"measurement": "binding", "value": "binds"}]}
